These results are taken from patent US20130130315A1 (ADVANCECOR, published 2013).

Sequences of proteins named here, by UniProt entry; tags and fusion partners are left off. A change or cut given only in a name is not applied to a line headed by its entry.
UniProt P02453: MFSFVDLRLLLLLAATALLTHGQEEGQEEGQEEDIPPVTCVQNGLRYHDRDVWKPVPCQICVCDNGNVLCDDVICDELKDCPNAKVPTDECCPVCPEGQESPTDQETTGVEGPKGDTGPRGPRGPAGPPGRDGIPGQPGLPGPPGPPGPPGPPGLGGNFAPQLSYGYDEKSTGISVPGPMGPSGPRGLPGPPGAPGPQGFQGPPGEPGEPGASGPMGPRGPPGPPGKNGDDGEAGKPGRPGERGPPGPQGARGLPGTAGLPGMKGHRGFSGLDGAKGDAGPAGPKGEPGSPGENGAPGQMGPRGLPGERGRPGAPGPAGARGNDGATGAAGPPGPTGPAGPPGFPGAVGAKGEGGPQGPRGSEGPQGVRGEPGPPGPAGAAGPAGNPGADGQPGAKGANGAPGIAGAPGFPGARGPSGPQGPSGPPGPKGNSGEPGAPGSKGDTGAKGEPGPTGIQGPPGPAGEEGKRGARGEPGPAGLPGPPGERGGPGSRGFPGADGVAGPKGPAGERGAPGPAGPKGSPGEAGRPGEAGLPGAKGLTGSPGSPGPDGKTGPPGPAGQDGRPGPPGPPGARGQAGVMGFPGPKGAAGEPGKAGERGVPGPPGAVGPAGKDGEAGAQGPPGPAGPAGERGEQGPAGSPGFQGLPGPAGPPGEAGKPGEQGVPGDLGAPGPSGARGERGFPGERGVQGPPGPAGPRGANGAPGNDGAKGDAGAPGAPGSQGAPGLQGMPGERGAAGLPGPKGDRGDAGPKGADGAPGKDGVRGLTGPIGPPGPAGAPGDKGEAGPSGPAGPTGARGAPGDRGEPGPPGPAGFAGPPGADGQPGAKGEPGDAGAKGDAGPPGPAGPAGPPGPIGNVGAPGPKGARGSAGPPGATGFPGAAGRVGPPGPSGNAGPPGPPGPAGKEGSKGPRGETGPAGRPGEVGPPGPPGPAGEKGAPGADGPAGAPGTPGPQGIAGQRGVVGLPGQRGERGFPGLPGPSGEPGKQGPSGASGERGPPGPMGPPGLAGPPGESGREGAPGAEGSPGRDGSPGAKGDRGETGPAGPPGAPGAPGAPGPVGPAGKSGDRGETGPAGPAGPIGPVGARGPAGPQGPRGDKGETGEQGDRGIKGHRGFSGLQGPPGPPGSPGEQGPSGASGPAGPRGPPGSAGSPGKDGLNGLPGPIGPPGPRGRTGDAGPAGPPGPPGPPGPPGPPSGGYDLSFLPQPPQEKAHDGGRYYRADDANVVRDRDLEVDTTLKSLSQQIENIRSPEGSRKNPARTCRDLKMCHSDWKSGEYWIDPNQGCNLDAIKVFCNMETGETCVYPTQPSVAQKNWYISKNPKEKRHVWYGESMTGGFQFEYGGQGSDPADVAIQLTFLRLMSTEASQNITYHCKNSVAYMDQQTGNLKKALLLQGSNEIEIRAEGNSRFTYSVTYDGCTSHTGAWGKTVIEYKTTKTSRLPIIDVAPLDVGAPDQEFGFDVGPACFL

These are yes or no findings as the source states them, for the method shown. Some results given as binding are weak or reduced against the parent protein; the word gives no strength. For part of these data: Where a sequence is shown, tags or fusion partners need not be part of it.

The target of experiment [1] is T1, CD133 protein (UniProt O43490).
T1 sequence (looked up): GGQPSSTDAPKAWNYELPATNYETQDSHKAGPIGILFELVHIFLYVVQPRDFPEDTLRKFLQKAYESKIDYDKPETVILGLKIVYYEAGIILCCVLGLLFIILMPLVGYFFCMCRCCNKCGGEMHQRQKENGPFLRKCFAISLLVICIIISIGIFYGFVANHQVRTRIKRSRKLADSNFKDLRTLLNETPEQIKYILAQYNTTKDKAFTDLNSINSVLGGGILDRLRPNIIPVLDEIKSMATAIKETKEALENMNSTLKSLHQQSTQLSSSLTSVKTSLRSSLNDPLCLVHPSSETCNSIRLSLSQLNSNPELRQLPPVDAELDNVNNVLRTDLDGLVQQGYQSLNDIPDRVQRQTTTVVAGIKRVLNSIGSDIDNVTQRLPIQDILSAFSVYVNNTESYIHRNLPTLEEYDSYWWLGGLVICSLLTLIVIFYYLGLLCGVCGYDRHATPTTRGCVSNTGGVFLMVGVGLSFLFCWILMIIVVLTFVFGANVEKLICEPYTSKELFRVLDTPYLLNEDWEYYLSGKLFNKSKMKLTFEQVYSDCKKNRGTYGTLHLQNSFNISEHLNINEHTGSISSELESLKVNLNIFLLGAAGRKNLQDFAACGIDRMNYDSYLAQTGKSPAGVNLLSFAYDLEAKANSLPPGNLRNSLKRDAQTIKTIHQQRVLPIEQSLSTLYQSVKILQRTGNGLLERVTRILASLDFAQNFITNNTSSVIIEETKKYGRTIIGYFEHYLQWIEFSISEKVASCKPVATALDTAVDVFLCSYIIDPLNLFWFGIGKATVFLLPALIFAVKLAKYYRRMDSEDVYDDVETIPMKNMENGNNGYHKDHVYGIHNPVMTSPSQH
The experiment in a line: cellular ELISA on fixed AC133/293 cells.

The target of experiment [2] is T2, bovine collagen I (bovine, UniProt P02453 162-1217; P02465 80-1117, limits assumed).
T2 construct: also called immobilized collagen I; soluble collagen I
As to the kind of experiment: ELISA on immobilized bovine collagen I. As to the method:
Fc-protein was used as negative control.
An Immulon 2 HB 96-well plate (NUNC, Rochester, N.Y.) was coated with 0.1 ml 1 μg/ml bovine collagen I in 15 mM Na₂CO3, 35 mM NaHCO3, pH 9.6 o/n at 4° C. Wells were washed with PBS-T, blocked with 0.1 ml 1× RotiBlock (Roth, Karlsruhe, Germany) in PBS-T for one hour and washed again before addition of 0.1 ml of threefold dilutions of fusion protein. After one hour incubation at RT with shaking, wells were washed with PBS-T. Wells were incubated with 0.1 ml anti-human IgG-HRP (Dianova, Hamburg, Germany) 1:10000 in PBS-T for one hour at RT with shaking. The plate was washed with PBS-T and incubated with 0.1 ml 1-Step Ultra TMB-ELISA (PIERCE, Rockford, Ill.). After blue staining had developed sufficiently, reactions were stopped by addition of 0.1 ml 1 M H₂SO₄. Absorbance was measured at 450 nm and 595 nm as a reference wavelength using an infinite F200 plate reader (TECAN, Männedorf, Switzerland). EC₅₀ values were calculated with Sigma Plot 11 using Four Parameter Logistic.

Experiment [3] has as its target T2, bovine collagen I. The experiment in a line: ELISA on immobilized bovine collagen I (FIG. 9). (ELISA stands for enzyme-linked immunosorbent assay.)
The target in experiment [4] is T1, CD133 protein. The experiment in a line: competitive cellular ELISA on fixed AC133/293 cells; competitor of 2 nM W6B3H10 mAb.
The target of experiment [5] is T2, bovine collagen I. As to the kind of experiment: ELISA on immobilized bovine collagen I; specificity confirmed by competition with soluble collagen I.
Experiment [6] has as its target T1, CD133 protein. The experiment in a line: cellular ELISA on fixed AC133/293 cells (FIG. 5).
Experiment [7] has as its target T1, CD133 protein. The experiment in a line: cellular ELISA, threefold dilution series on fixed AC133/293 cells.
Experiment [8] deals with T1, CD133 protein. The experiment in a line: phage display selection on CD133 membrane preparations and phage FACS on AC133/293 cells.

B1: humanized fusion protein hscFv-lh-GPVI-Fc (Fc fusion)
chain: DIQMTQSPKSLSASVGDRVTITCKASENVDTYVSWYQQKPGKAPKVLIYGASNRYTGVPSRFTGSGSATDFTLTISSLQPEDFATYYCGQSYRYPLTFAQGTKVEIKGGGGSGGGGSGGGGSEVQLVQSGAEVKKPGASVKVSCKASGYSFTNYYVHWVKQAPGQGLEWMGYVDPFNGDFNYNQKFKDRVTLTVDTSTSTAYMELSSLTSEDRAVYYCARGGLDWYDTSYWYFDVWGQGTLVTVSSQSGPLPKPSLQALPSSLVPLEKPVTLRCQGPPGVDLYRLEKLSSSRYQDQAVLFIPAMKRSLAGRYRCSYQNGSLWSLPSDQLELVATGVFAKPSLSAQPGPAVSSGGDVTLQCQTRYGFDQFALYKEGDPAPYKNPERWYRASFPIITVTAAHSGTYRCYSFSSRDPYLWSAPSDPLELVVTGTSVTPSRLPTEPPSSVAEFSEATAELTVSFTNKVFTTETSRSITTSPKESDSPAGPARQYYTKGNGGRVECPPCPAPPVAGPSVFLFPPKPKDTLMISRTPEVTCVVVDVSHEDPEVQFNWYVDGVEVHNAKTKPREEQFNSTFRVVSVLTVVHQDWLNGKEYKCKVSNKGLPAPIEKTISKTKGQPREPQVYTLPPSREEMTKNQVSLTCLVKGFYPSDIAVEWESNGQPENNYKTTPPMLDSDGSFFLYSKLTVDKSRWQQGNVFSCSVMHEALHNHYTQKSLSLSPGK
B1: the binding entry with CD133 protein [1] and with bovine collagen I [2] was “binds” each time.

B2: fusion protein scFv-lh-GPVI-FcIgG2 (Fc fusion)
chain: DILMTQSPKSMSMSLGERVTLSCKASENVDTYVSWYQQKPEQSPKVLIYGASNRYTGVPDRFTGSGSATDFSLTISNVQAEDLADYHCGQSYRYPLTFGAGTKLELKGGGGSGGGGSGGGGSEVQLQQSGPDLMKPGASVKISCKASGYSFTNYYVHWVKQSLDKSLEWIGYVDPFNGDFNYNQKFKDKATLTVDKSSSTAYMHLSSLTSEDSAVYYCARGGLDWYDTSYWYFDVWGAGTAVTVSSQSGPLPKPSLQALPSSLVPLEKPVTLRCQGPPGVDLYRLEKLSSSRYQDQAVLFIPAMKRSLAGRYRCSYQNGSLWSLPSDQLELVATGVFAKPSLSAQPGPAVSSGGDVTLQCQTRYGFDQFALYKEGDPAPYKNPERWYRASFPIITVTAAHSGTYRCYSFSSRDPYLWSAPSDPLELVVTGTSVTPSRLPTEPPSSVAEFSEATAELTVSFTNKVFTTETSRSITTSPKESDSPAGPARQYYTKGNGGRVECPPCPAPPVAGPSVFLFPPKPKDTLMISRTPEVTCVVVDVSHEDPEVQFNWYVDGVEVHNAKTKPREEQFNSTFRVVSVLTVVHQDWLNGKEYKCKVSNKGLPAPIEKTISKTKGQPREPQVYTLPPSREEMTKNQVSLTCLVKGFYPSDIAVEWESNGQPENNYKTTPPMLDSDGSFFLYSKLTVDKSRWQQGNVFSCSVMHEALHNHYTQKSLSLSPGK
notes: also called parental fusion protein; mouse fusion protein
Take B2: the binding result with bovine collagen I [3], with CD133 protein [4] and in the experiment with bovine collagen I [5] was “binds” in each case.

B3: single chain antibody scFv-lh (scFv, not shown: a dimerising Fc or GST)
scFv: DILMTQSPKSMSMSLGERVTLSCKASENVDTYVSWYQQKPEQSPKVLIYGASNRYTGVPDRFTGSGSATDFSLTISNVQAEDLADYHCGQSYRYPLTFGAGTKLELKGGGGSGGGGSGGGGSEVQLQQSGPDLMKPGASVKISCKASGYSFTNYYVHWVKQSLDKSLEWIGYVDPFNGDFNYNQKFKDKATLTVDKSSSTAYMHLSSLTSEDSAVYYCARGGLDWYDTSYWYFDVWGAGTAVTVSS
notes: Orientation light-heavy; Made in CHO cells and in E. coli (pET22b); also called mouse single chain antibody; parental mouse single chain antibody
On to B3, for which the binding entry with CD133 protein [6], with CD133 protein [1] and with CD133 protein [7] was “binds” throughout.

B4: phage clone 27 (humanized single chain antibody derived from phage clone 27) (scFv)
scFv: DIQMTQSPKSLSMSVGDRVTITCKASENVDTYVSWYQQKPGKAPKVLIYGASNRYTGVPSRFSGSGSATDFTLTISSLQPEDFATYHCGQSYRYPLTFGQGTKVEIKGGGGSGGGGSGGGGSEVQLVQSGAEVKKPGASVKVSCKASGYSFTNYYVHWVKQAPGQGLEWMGYVDPFNGDFNYNQKFKDRVTLTVDTSTPTAYMELSSLTPEDTAVYYCARGGLDWYDTSYWYFDVWGQGTLVTVSS
notes: not shown: fusion to the phage coat protein; display format not described
As to B4, the binding entry with CD133 protein [8] is “binds”.
